Measurements reported in PubChem BioAssay AID504791 (Drosophila RNAi Screening Center, 2011)
In all, the deposit lists about 23,000 reagents; below is a random part of those that have a named target and a result. Over the whole deposit, 199 (0.86%) got an active call. 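Plate-scaled ratios behind the calls are not deposited; printed light signals are raw; many rows marked increased or decreased are still called inactive.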 A number with no mark means an inactive call. A plus sign joins genes that one reagent is predicted to hit. Reagent sequences are not shown. Not stated in the record: the direction of the score.

- Screen: 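Genes of the fly required for silencing by miRNA, siRNA or endo-siRNA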 (primary screen)
- Cell system: Drosophila S2-derived reporter cells
- Knock-down reagent: long dsRNA against Drosophila genes, about 150-250 ng dsRNA per well (siRNA assay); about 80-120 ng (miRNA assay)
- Timing: about 5 days (siRNA assay); about 4 days (miRNA assay)
- Conditions: copper sulfate induction of reporters: 25 µM (siRNA assay); 200 mM stated (miRNA assay), 1-2 days before reading
- Detection: 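Dual luciferase assay: Renilla to firefly signal ratio in each well, scaled to the mean ratio of its plate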
- Call rule: 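First-pass picks had plate-scaled ratios over 1.5 for the siRNA assay, over 1.6 for the miRNA assay, or under 0.6; two distinct dsRNAs had to score alike on retest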

Gene	dsRNA	stable siRNA reporter change	miRNA reporter change	stable assay Renilla, run 1 (luminescence)	stable assay firefly, run 1 (luminescence)
CG42361	DRSC04391			6179	3.49e5
CG30001	DRSC05191			5258	5.38e5
CG42713	DRSC01050			6322	4.98e5
cocoon	DRSC10916			6126	3.87e5
BomS4	DRSC22509			5171	4.01e5
Hecw	DRSC18261			4652	3.67e5
Hecw	DRSC18276			5451	4.29e5
Bro	DRSC08149			6915	3.56e5
CG14450	DRSC11707			7074	4.46e5
Hira	DRSC18672			5778	3.24e5
CYTB (retired record)	DRSC21272			5699	4.12e5
Mur29B	DRSC01018			5684	4.22e5
Mur29B	DRSC02376			7190	3.13e5
CG1136	DRSC08184			8139	4.95e5
CR33294	DRSC22950			4128	3.84e5
CG3918	DRSC18331			7026	3.33e5
CG3918	DRSC23159			5591	3.81e5
Agpat2	DRSC03532			48749	1.25e6
CG34203	DRSC03855			5287	2.90e5
CG18324	DRSC06721			8966	4.30e5
cg	DRSC07650			4919	2.20e5
cg	DRSC23142			4020	3.10e5
CG31998	DRSC17137			8933	4.79e5
CG31998	DRSC17138			6063	3.21e5
Acp29AB	DRSC01857			6715	3.82e5
Cyp313a5	DRSC16628			6436	4.00e5
ex	DRSC00817			9814	2.29e5
CG14227	DRSC19584			3900	4.46e5
CG42735 (retired record)	DRSC00921			5215	3.92e5
NimA	DRSC01353			6372	5.05e5
NimA	DRSC22170			8306	4.38e5
Shc	DRSC11284			5358	3.34e5
CG33768	DRSC11715		reporter ratio lowered past the hit cutoff	7757	5.70e5
CR18228	DRSC15317			8490	6.38e5
Tis11	DRSC20293	reporter ratio raised past the hit cutoff		7543	2.63e5
Tis11	DRSC23110	reporter ratio raised past the hit cutoff		1504	67280
Tnks	DRSC14154			6915	4.04e5
Sur	DRSC03447			38000	3.14e5
CG15014	DRSC08468			6591	5.54e5
Vha26	DRSC12371			8759	6.45e5
shtd	DRSC20166			8252	4.33e5
CG15269	DRSC01942			7778	4.50e5
Nep3	DRSC20685			4931	3.13e5
sens-2	DRSC02136			8019	4.11e5
sens-2	DRSC02613			8429	4.17e5
sens-2	DRSC21374			8759	3.72e5
CG8173	DRSC20088			6219	4.39e5
nvd	DRSC22139			8923	5.53e5
Vml	DRSC17695			7571	3.14e5
Vml	DRSC18529			7319	4.62e5
MFS16	DRSC04051			6714	3.75e5
Aasdh	DRSC03467			8615	4.27e5
CG42726 + CG42727	DRSC14485			9135	5.49e5
spirit	DRSC18202			7174	5.20e5
CG9498	DRSC03235			7851	4.59e5

The list goes on; the last 3 above are carried over.
Gene	dsRNA	stable siRNA reporter change	miRNA reporter change	stable assay Renilla, run 1 (luminescence)	stable assay firefly, run 1 (luminescence)
CG42726 + CG42727	DRSC14485			9135	5.49e5
spirit	DRSC18202			7174	5.20e5
CG9498	DRSC03235			7851	4.59e5
Mdr49	DRSC07466		reporter ratio lowered past the hit cutoff (active)	7663	5.18e5
lap	DRSC12628			7722	4.06e5
Ada2a	DRSC16206			7099	3.65e5
Ada2a	DRSC21598			6364	3.40e5
CG31013	DRSC16542			7418	4.22e5
brm	DRSC11330		reporter ratio lowered past the hit cutoff (active)	4958	4.02e5
CG4069	DRSC10396			9923	4.11e5
CG2839	DRSC00544			7362	5.39e5
CG4766	DRSC17736			5091	3.89e5
Mkk4	DRSC16739			5943	3.66e5
insb	DRSC06995			6675	3.05e5
alt	DRSC15315			7826	3.65e5
CG4928	DRSC19342			8071	5.23e5
RluA-1	DRSC02240			5871	3.33e5
RluA-1	DRSC03060			7060	4.40e5
BomT2	DRSC06631			6763	3.72e5
Rb97D	DRSC16815			5435	4.24e5
CG8349	DRSC03083			6767	3.08e5
Prp8	DRSC07293			11184	3.85e5
CHMP2B	DRSC10436			8647	3.78e5
Cog7	DRSC16331			6986	4.49e5
CG34305	DRSC11995			7406	4.85e5
Or85e (retired record)	DRSC16768			7633	5.23e5
CG7601	DRSC14131			8505	6.34e5
CG32281	DRSC08236			7127	4.25e5
CG18661	DRSC02690			7370	3.67e5
CG42741	DRSC04593			5214	2.94e5
CG42741	DRSC22045			10363	7.17e5
otp	DRSC04050			7370	3.49e5
otp	DRSC04707			6526	3.26e5
Tim8	DRSC20291			4200	4.04e5
CG33796	DRSC09417			6091	4.55e5
Mef2	DRSC07468			7318	3.61e5
CG14383	DRSC14841			7422	5.61e5
CG8908	DRSC07297			6643	2.71e5
fs(2)ltoPP43	DRSC02067			6750	5.29e5
MTF-1	DRSC08983			3611	3.12e5
MTF-1	DRSC11217		reporter ratio raised past the hit cutoff (active)	3039	2.30e5
MTF-1	DRSC21341		reporter ratio raised past the hit cutoff (active)	4712	2.18e5
CG32050 (retired record)	DRSC10173			4735	2.75e5
CG30403	DRSC03889			2800	3.13e5
beta4GalT7	DRSC14385			6591	3.36e5
Nf1	DRSC16758			9883	5.97e5
Miox	DRSC10747			5978	3.49e5
CG13693	DRSC00362			8634	6.62e5
CG34040	DRSC03902			4960	3.37e5
CG4597	DRSC10432			6474	4.36e5
CG10031	DRSC00286			7518	4.23e5
Cdc37	DRSC08648			4291	3.32e5
Mgat4b	DRSC10256			8242	3.46e5
Or2a	DRSC18690			5636	3.91e5
